PubChem BioAssay AID504793 | Drosophila RNAi Screening Center | 2011

- Screen: 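Knock-downs allowing continued mitosis even though DNA is damaged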 (primary screen)
- Cell system: Drosophila S2R+ cells
- Reagent: long dsRNA against Drosophila genes, about 0.25 µg dsRNA per well
- Duration: 4 days of dsRNA, then 4 hours of drug before read-out
- Challenge: doxorubicin 0.5 µM for 4 hours to cause double-strand breaks, in cells also given a low, harmless dose of dsRNA against nbs to sensitise the assay
- Read-out: 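Mitotic index as the number of phospho-histone H3-positive cells in each well following doxorubicin, given as raw counts without normalisation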
- Direction: mitotic cells: higher = more cells in mitosis, weaker G2 arrest
- Active means: 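a call needs confirmation in secondary tests, with other dsRNAs and a check of mitotic timing without damage, not just a high primary count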
- Meaning of the calls: active = confirmed in follow-up tests; inactive = not confirmed
The screen tested about 23,000 reagents; below is a random part of those with a known target gene and a result. In the full data, 62 (0.27%) are marked active. 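Calls come from follow-up tests whose scores are not deposited, so confirmed genes may have low counts here; counts are not normalised per plate.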 The raw values are shown without normalisation. A plus sign joins genes that one reagent is predicted to hit.

| target gene | PubChem SID | mitotic cells, replicate 1 | mitotic cells, replicate 2 | Outcome |
| --- | --- | --- | --- | --- |
| MstProx + Mst84Da | SID104192389 | 1 | – | inactive |
| CG33301 | SID104182570 | 7 | – | inactive |
| CG33301 | SID104203871 | 6 | – | inactive |
| CG11248 | SID104191436 | 10 | – | inactive |
| CG5255 | SID104195546 | 4 | – | inactive |
| CG5255 | SID104203452 | 9 | – | inactive |
| RN-tre (Related to the N terminus of tre oncogene) | SID104187313 | 5 | – | inactive |
| RN-tre (Related to the N terminus of tre oncogene) | SID104206758 | 3 | – | inactive |
| Pus7 (Pseudouridine synthase 7) | SID104190495 | 4 | – | inactive |
| Pus7 (Pseudouridine synthase 7) | SID104206028 | 6 | – | inactive |
| CG4622 | SID104184271 | 8 | – | inactive |
| Adgf-E (Adenosine deaminase-related growth factor E) | SID104185765 | 10 | – | inactive |
| Adgf-E (Adenosine deaminase-related growth factor E) | SID104205831 | 9 | – | inactive |
| CG2938 | SID104198035 | 6 | – | inactive |
| CG2938 | SID104206463 | 5 | – | inactive |
| CG15142 | SID104182235 | 2 | – | inactive |
| RpS25 (Ribosomal protein S25) | SID104196629 | 4 | – | inactive |
| RpS25 (Ribosomal protein S25) | SID104208534 | 7 | – | inactive |
| Ube3a (Ubiquitin protein ligase E3A) | SID104190392 | 5 | – | inactive |
| CG15705 | SID104186368 | 5 | – | inactive |
| CG15705 | SID104207904 | 5 | – | inactive |
| CR31700 (pseudo) | SID104183474 | 9 | – | inactive |
| ATPsyngamma (ATP synthase, gamma subunit) | SID104193886 | 18 | – | inactive |
| stj (straightjacket) | SID104185916 | 7 | – | inactive |
| Sec23 (Secretory 23) | SID104192179 | 5 | – | inactive |
| CG32440 | SID104191272 | 3 | – | inactive |
| gammaSnap2 (gamma Soluble NSF attachment protein 2) | SID104195784 | 9 | – | inactive |
| Nubpl (NUBP iron-sulfur cluster assembly factor, mitochondrial) | SID104183517 | 6 | – | inactive |
| mRpS9 (mitochondrial ribosomal protein S9) | SID104192437 | 6 | – | inactive |
| mRpS9 (mitochondrial ribosomal protein S9) | SID104195248 | 3 | 14 | inactive |
| msb1l | SID104183364 | 3 | – | inactive |
| msb1l | SID104204982 | 5 | – | inactive |
| CG18853 + phr | SID104206030 | 4 | – | inactive |
| Exn (Ephexin) | SID104189465 | 14 | – | inactive |
| Exn (Ephexin) | SID104189869 | 7 | – | inactive |
| Exn (Ephexin) | SID104202848 | 4 | – | inactive |
| Exn (Ephexin) | SID104203255 | 5 | – | inactive |
| CG14721 | SID104207790 | 3 | – | inactive |
| Hrd3 (HMG-coA reductase degradation 3) | SID104193948 | 5 | – | inactive |

A run of entries taken from the entries so far, as a working copy:
| target gene | PubChem SID | mitotic cells, replicate 1 | mitotic cells, replicate 2 | Outcome |
| --- | --- | --- | --- | --- |
| RpS25 (Ribosomal protein S25) | SID104196629 | 4 | – | inactive |
| RpS25 (Ribosomal protein S25) | SID104208534 | 7 | – | inactive |
| Ube3a (Ubiquitin protein ligase E3A) | SID104190392 | 5 | – | inactive |
| CG15705 | SID104186368 | 5 | – | inactive |
| CG15705 | SID104207904 | 5 | – | inactive |

Continued:
| target gene | PubChem SID | mitotic cells, replicate 1 | mitotic cells, replicate 2 | Outcome |
| --- | --- | --- | --- | --- |
| Mct1 (Monocarboxylate transporter 1) | SID104198473 | 6 | – | inactive |
| Mct1 (Monocarboxylate transporter 1) | SID104207550 | 3 | – | inactive |
| beta4GalT7 (beta-4-galactosyltransferase 7) | SID104194177 | 12 | – | inactive |
| CG30087 | SID104201360 | 12 | – | inactive |
| CG30087 | SID104205601 | 9 | – | inactive |
| CG6891 | SID104199808 | 10 | – | inactive |
| CG6891 | SID104204398 | 5 | – | inactive |
| CanB (Calcineurin B) | SID104198241 | 14 | – | inactive |
| CanB (Calcineurin B) | SID104207764 | 6 | – | inactive |
| CG11099 | SID104185826 | 9 | – | inactive |
| CG9300 | SID104190856 | 11 | – | inactive |
| t-cup (tetleys-cup) | SID104181046 | 24 | – | inactive |
| t-cup (tetleys-cup) | SID104206058 | 11 | – | inactive |
| Or94a (Odorant receptor 94a) | SID104196564 | 6 | – | inactive |
| spo (spook) | SID104190919 | 4 | – | inactive |
| CG9674 | SID104190880 | 6 | – | inactive |
| CG9674 | SID104190881 | 5 | – | inactive |
| nanos | SID104196810 | 5 | – | inactive |
| nanos | SID104203814 | 8 | – | inactive |
| Mal-A2 (Maltase A2) | SID104187252 | 15 | – | inactive |
| stau (staufen) | SID104187490 | 7 | – | inactive |
| CG14072 | SID104182167 | 3 | – | inactive |
| Cdc16 (Cell division cycle 16) | SID104196712 | 141 | – | inactive |
| CG17211 | SID104182379 | 7 | – | inactive |
| und (uninitiated) | SID104183421 | 1 | – | inactive |
| VhaM9.7-b (Vacuolar H[+] ATPase M9.7 subunit b) | SID104191633 | 9 | – | inactive |
| AkhR (Adipokinetic hormone receptor) | SID104183121 | 3 | – | inactive |
| AkhR (Adipokinetic hormone receptor) | SID104207238 | 3 | – | inactive |
| Cyp316a1 (Cytochrome P450 316a1) | SID104190922 | 6 | – | inactive |
| Cyp316a1 (Cytochrome P450 316a1) | SID104207603 | 5 | – | inactive |
| CG6833 | SID104190513 | 6 | – | inactive |
| CG6833 | SID104203354 | 6 | – | inactive |
| CG13386 | SID104182052 | – | – | inactive |
| CG13386 | SID104207284 | 2 | – | inactive |
| CG31294 | SID104201751 | 7 | – | inactive |
| CG31294 | SID104205409 | 6 | – | inactive |
| CG3640 | SID104184191 | 7 | – | inactive |
| HLH3B (Helix loop helix protein 3B) | SID104198461 | 5 | – | inactive |
| HLH3B (Helix loop helix protein 3B) | SID104203993 | 5 | – | inactive |
| IRSp53 (Insulin receptor substrate 53 kDa) | SID104190683 | 6 | – | inactive |
| Gr39b (Gustatory receptor 39b) | SID104181640 | 5 | 7 | inactive |
| Gr39b (Gustatory receptor 39b) | SID104205008 | 4 | – | inactive |
| CG10343 | SID104181833 | 1 | – | inactive |
| CG10343 | SID104206284 | 6 | – | inactive |
| GstD4 (Glutathione S transferase D4) | SID104196477 | 3 | – | inactive |
| GstD4 (Glutathione S transferase D4) | SID104206309 | 5 | – | inactive |
| GstD8 (Glutathione S transferase D8) | SID104196481 | 9 | – | inactive |
| GstD8 (Glutathione S transferase D8) | SID104203330 | 3 | – | inactive |
| CG5986 | SID104195723 | 6 | – | inactive |
| CG5986 | SID104203097 | 4 | – | inactive |
| CG7639 | SID104186818 | 1 | – | inactive |
| fs(1)K10 (female sterile (1) K10) | SID104198567 | 4 | – | inactive |
| fs(1)K10 (female sterile (1) K10) | SID104203804 | 7 | – | inactive |
| CG9664 | SID104180517 | 3 | – | inactive |
| Sap-r (Saposin-related) | SID104196641 | 10 | – | inactive |
| Sap-r (Saposin-related) | SID104201540 | 10 | – | inactive |
| Sap-r (Saposin-related) | SID104205790 | 3 | – | inactive |
| Cat (Catalase) | SID104190902 | 8 | – | inactive |
| Cat (Catalase) | SID104203021 | 4 | – | inactive |
| Adck1 (aarF domain containing kinase 1) | SID104184186 | 10 | – | inactive |
| fbl (fumble) | SID104207659 | 8 | – | inactive |
| Cyp9f2 (Cytochrome P450 9f2) | SID104196427 | 5 | – | inactive |
| Alg-2 (Apoptosis-linked gene-2) | SID104187591 | 1 | – | inactive |
| CG34375 | SID104194476 | 5 | – | inactive |
| CG34375 | SID104194477 | 6 | – | inactive |
| CG34375 | SID104203179 | 5 | – | inactive |
| BRWD3 | SID104195161 | 31 | – | active |
| BRWD3 | SID104195824 | 27 | – | active |
| CG32462 | SID104191643 | 3 | – | inactive |
| CG32462 | SID104208002 | 5 | – | inactive |
| CycE (Cyclin E) | SID104183087 | 5 | – | inactive |
| CycE (Cyclin E) | SID104183088 | 4 | – | inactive |
